A short description of data set [1]: general procedure: hybrid (solid and solution phase) peptide synthesis; H-Gly-2-CT resin; DIC/6-Cl HOBT (solid phase); BOP/HOBt/DIEA (fragment coupling in solution). The following applies: whole synthesis, scale of the general procedure 100.00 g resin.
Data set [2] in a line: general procedure: hybrid (solid and solution phase) peptide synthesis; H-Gly-2-CT resin (2-chlorotrityl), loading 0.43 mmol/g; DIC/6-Cl HOBT (solid phase); BOP/HOBt/DIEA (fragment coupling in solution).
The mark [3] stands for this setting: whole synthesis, HPLC (area normalisation, AN), scale of the general procedure 100.00 g resin.
Setting [4] is: coupling step, HPLC (area normalisation, AN).

Square brackets hold non-standard residues; d marks the D form. * marks the point of attachment. Gln(Trt) = N[C@@H](CCC(=O)NC(c1ccccc1)(c1ccccc1)c1ccccc1)C(=O)O; Pbf = Cc1c(C)c(S(=O)(=O)*)c(C)c2c1OC(C)(C)C2; Trt = c1ccc(C(c2ccccc2)(c2ccccc2)*)cc1; Fmoc = O=C(OCC1c2ccccc2-c2ccccc21)*; Boc = CC(C)(C)OC(=O)*; OtBu = CC(C)(C)O*; tBu = CC(C)(C)*

In data set [1], “Boc-D(OtBu)S(tBu)W(Boc)ME(OtBu)E(OtBu)VIK(Boc)LC(Trt)G-OH” displayed a crude yield of 98.4%. For the same substance, the “crude HPLC purity” value in data set [2] (setting [3]) is 78.8% purity, AN.
Regarding “H-Arg(Pbf)-Glu(OtBu)-Leu-Val-Arg(Pbf)-Ala-Gln(Trt)-Ile-Ala-Ile-Cys(Trt)-Gly-Met-Ser(OtBu)-Thr(OtBu)-Trp-Ser(OtBu)-OtBu”, the step yield in data set [2] (coupling step) came to 95.3%; in data set [2] (coupling step, based on Fragment 2) it was 104.4%. Moreover, the “final HPLC purity” value in data set [2] (setting [4]) is listed as 48.6% AN.
For the substance “Fmoc-Met-Ser(OtBu)-Thr(OtBu)-Trp-Ser(OtBu)-OtBu”, in data set [2] (setting [4]), the “crude HPLC purity” value was determined as 87.3% a. n.
For the substance “Boc-Asp(OtBu)-Ser(tBu)-Trp(Boc)-Met-Glu(OtBu)-Glu(OtBu)-Val-Ile-Lys(Boc)-Leu-Cys(Trt)-Gly-Arg(Pbf)-Glu(OtBu)-Leu-Val-Arg(Pbf)-Ala-Gln(Trt)-Ile-Ala-Ile-Cys(Trt)-Gly-Met-Ser(OtBu)-Thr(OtBu)-Trp-Ser(OtBu)-OtBu”, the step yield was 99.3% in data set [2] (coupling step) and 93.2% in data set [2] (coupling step, based on Fragment 2+3'). For the same substance, in data set [2] (setting [4]), the “crude HPLC purity” value is on record as 56.4% AN.
“Fmoc-R(Pbf)E(OtBu)LVR(Pbf)A[Gln(Trt)]IAIC(Trt)G-OH” showed a crude yield in data set [1] of 81.0%. Besides, the “crude HPLC purity” value in data set [2] (setting [3]) is 91.9% purity, a. n.
On to “H-Asp-Ser-Trp-Met-Glu-Glu-Val-Ile-Lys-Leu-Cys-Gly-Arg-Glu-Leu-Val-Arg-Ala-Gln-Ile-Ala-Ile-Cys-Gly-Met-Ser-Thr-Trp-Ser-OH”, for which the “crude HPLC purity” value in data set [2] (late stage modification step, HPLC (area normalisation, AN)) is 19.4% AN.

Values taken from patent US20100137561 (published 2010).
